This note sets out measurements from article PMC8169668, “Discovery of a cooperative mode of inhibiting RIPK1 kinase” (Cell Discovery, 2021).

Amino acid sequences for entries named in this document (tags omitted). Residues count along the entry.
UniProt P01375, residues 77-233: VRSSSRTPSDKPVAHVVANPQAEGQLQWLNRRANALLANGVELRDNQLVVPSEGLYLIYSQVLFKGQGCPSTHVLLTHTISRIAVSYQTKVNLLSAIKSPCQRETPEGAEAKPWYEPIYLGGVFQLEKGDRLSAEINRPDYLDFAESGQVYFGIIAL

These are yes or no findings as the source states them, for the method shown. In cells and extracts the contact can be indirect. Some results given as binding are weak or reduced against the parent protein; the word gives no strength.

The target of this assay is Flag-TNFα (UniProt P01375). Put plainly: co-IP; L929 cells given 100 ng/mL Flag-TNFα for the indicated times, with or without 30 min pretreatment with 10 μM Nec-1s or Nec-34; lysed in 0.5% Nonidet P-40 buffer; anti-Flag antibody-conjugated agarose; western blot; only the target purified.

B1: TRADD, mouse (protein, UniProt Q3U0V2 1-310)
chain: MAAGQNGHEEWVGSAYLFLESAVDKVILSEAYTDPKKKVAIYKALQTALSESGDSSDVLQILKIHCSDPQLIVQLRFCGRVLCGRFLQAYREGALRTALQRCMAPALAQEALRLQLELRAGAEQLDSWLTDEERCLNYILAQKPDRLRDEELAELEDELCKLTCDCTGQGGAIQVASAGSKFPVSSPTEEKPLPAACQTFLFHGQLVVNRPLTLQDQQTFARSVGLKWRRVGRSLQRNCRALRDPALDSLAYEYERDGLYEQAFQLLRRFMQAEGRRATLQRLVEALEENELTSLAEDLLGQAEPDGGLA
For B1, the binding result is on record as “binds”.

B2: Sharpin, mouse (protein, UniProt Q91WA6 1-380)
chain: MSPPAGGAAVAADPASPVVLLAVHAAVRPLGAGQDAEAQPRKLQLIADPERPGRFRLGLLGTEPGAVSLEWPLEAICYTVRGPNQHELQPPPGGPGTFSVHFLDPEEAQQWAALVRDATAEGQNGSGSPAPAPAPAMCPISPPCSSMAQIPKATQPEVDLPQSSGNFKKEELATRLSQAIAGGDEKAAAQVAAVLAQHHVALNVQLMEAWFPPGPIRLQVTVEDATSVLSSSSSAHVSLKIHPHCSIAALQDQVFSEFGFPPAVQRWVIGRCLCMPERSLASYGVSQDGDPAFLYLLSAPREVSGQSLQNSKMDRKLGLFPQSLGLPHDLQPSSSSLPSPSQPGWSCPSCTFINASNRPGCEMCSTQRPCAWDPLAAAST
Take B2: the binding result is listed as “binds”.
